Assay results: publication PMC8092839
Results are given in words; binding and its absence hold for the method and conditions named. Some results given as binding are weak or reduced against the parent protein; the word gives no strength.

Target: porcine Bax lacking the C-terminal transmembrane domain (BaxΔC) (porcine)
Assay: two-hybrid

- binding: binds
B1: porcine interferon regulatory factor 3 (IRF3) (protein, UniProt Q764M6 1-419)
chain: MGTQKPRILPWLISQLNQGQLEGVAWLDEGHTRFRIPWKHGLRQDAQQEDFGIFQAWAEASGAYTPGKDKPDLPTWKRNFRSALNRKEALRLAEDHSKDPHDPHKIYEFVTSGVGDFPEPDTSLDLSGRYSTSDTHEDSLDKLLSGMDLASDAGPQSLTLALEQPPQLSLSPSVDAPASCPNLGVRENPLKQLLANDDEWEFQVTVFYRGCQVFQQTVCSPGGLRLVGSEAEDGTLAGQPVRLPDPAASLTDRGVADYVRRVLSCLGGGLALWRAGQWLWAQRLGHCHVYWAMGEELIPDSGHKPDGEVPKDREGGVFDLGPFIEDLIAFIEGSRRSPRYTLWFCMGQSWPQDEPWVKRLVMVKVVPMCLRALVDMARDGGASSLENTVDLHISNSHPLSLTSDQYKACLRDLVEDMDF
